Results as given in patent US20160346283A1, “Various Compounds as Autophagy Stimulants” (Velgene 3 Limited, priority 2013, published 2016).
At least one compound was matched to its structure with a doubt left.

Test system: GFP-RFP-LC3 HeLa cell line
Assay: GFP-RFP-LC3 HeLa autophagy reporter cell assay (fluorescence microscopy)
Format: cell-based, human
Conditions: 200 nM rapamycin, 6 hours
Protocol: The GFP-RFP-LC3 HeLa cell line (Settembre et al, Science, 2011) was cultured in DMEM (Dulbecco's Modified Eagle's Medium, Sigma, D7777) containing 4500 mg/l glucose, 10% heat inactivated FCS (Merck), 40 μg/ml gentamycin (Hungaropharma) and 600 μg/ml G418 (Sigma, G8168). Drug candidates […]-0696, […]-7132 and […]-1567 were obtained from the ENAMINE molecule bank. 3×10^4 cells were plated onto 13 mm diameter poly-D-lysine coated coverslips in 24-well plates (Greiner) with 24 hours before the treatment. […] As controls, 0.1 and 1% DMSO, 200 nM rapamycin (autophagy inductor) and 100 nM bafilomycin A1 (an autophagy inhibitor) were used. For fluorescence microscopy, cells were fixed in 4% paraformaldehyde (Taab) and mounted in mowiol 4.88 (Polysciences) supplemented with bis-benzimide (Sigma) for nuclei staining. 5 epifluorescent pictures were taken in each condition by a BX51 microscope (Olympus) fitted with a FluoViewII camera and the AnalysisPro software (Olympus), using a 60×/1.4 oil Plan objective and the appropriate filter sets (DAPI: BP330-385/DM400/BA420; GFP: BP460-500/DM505/BP510-560; RFP: BP480-550/DM570/BA590). […] RFP: red fluorescence protein-autolysosome (mature autophagic compartment) GFP: green fluorescence protein Atg8: Autophagy-related protein 8-the most frequently used marker for autophagy Yellow: RFP and GFP (merged)-autophagosome (the primary autophagic structure)

CO[C@H]1C[C@@H]2CC[C@@H](C)[C@@](O)(O2)C(=O)C(=O)N2CCCC[C@H]2C(=O)O[C@H]([C@H](C)C[C@@H]2CC[C@@H](O)[C@H](OC)C2)CC(=O)[C@H](C)/C=C(\C)[C@@H](O)[C@@H](OC)C(=O)[C@H](C)C[C@H](C)/C=C/C=C/C=C/1C [Rapamycin, rapamycin, reference compound]
accumulation of autolysosomes (red dots), positive control: huge accumulation of autolysosomes
